For at least one entry, the source does not settle the construct or the ends of the probe. The comparison behind a weaker result is the experiment's own reference, which may not be listed here. For part of these data: At least one verdict was read from the data and is not stated in words by the source.
Experiments:
Assay in all cases: EMSA
[1] = tested on: TUT4 R283A/R286A + LIN28A; conditions: 0.5 mM UTP, Ca2+, Zn2+, much-reduced ternary assembly (interface 3), EMSA: 20 mM HEPES pH 7.8, 100 mM NaCl, 2 mM CaCl2, 50 uM ZnCl2, 5% glycerol, 5 mM DTT, RNase inhibitor, on ice 30 min, 0.1 uM RNA, 0.2 uM TUT, 0.3 uM LIN28A, recombinant protein, label: 3' CY dye
[2] = tested on: TUT4 interface 1 mutant + LIN28A; conditions: 0.5 mM UTP, Ca2+, Zn2+, affected less than interface 2/3, higher-order assemblies seen, EMSA: 20 mM HEPES pH 7.8, 100 mM NaCl, 2 mM CaCl2, 50 uM ZnCl2, 5% glycerol, 5 mM DTT, RNase inhibitor, on ice 30 min, 0.1 uM RNA, 0.2 uM TUT, 0.3 uM LIN28A, recombinant protein, label: 3' CY dye
[3] = tested on: TUT4 interface 2/3 mutants + LIN28A; conditions: 0.5 mM UTP, Ca2+, Zn2+, much-reduced ternary assembly, EMSA: 20 mM HEPES pH 7.8, 100 mM NaCl, 2 mM CaCl2, 50 uM ZnCl2, 5% glycerol, 5 mM DTT, RNase inhibitor, on ice 30 min, 0.1 uM RNA, 0.2 uM TUT, 0.3 uM LIN28A, recombinant protein, label: 3' CY dye

Measured: binding result

UGAGGUAGUAGUUUGUACAGUUUGAGGGUCUAUGAUACCACCCGGUACAGGAGAUAACUGUACAGGCCACUGCCUUGC [pre-let-7g_3'CY]
binds more weakly: all assays above

— article PMC11402785, “Structural basis for activity switching in polymerases determining the fate of let-7 pre-miRNAs” (Nature Structural & Molecular Biology, 2024)
